The other results are listed elsewhere or left out. The main result of the screen is listed elsewhere. These columns were measured beside it and carry no call. Most of these compounds were active or inconclusive in the main read-out, so they are no random draw. Potencies come from curve fits of mixed quality, noted in brackets.
Experiment: qHTS Assay to Find Inhibitors of Chronic Active B-Cell Receptor Signaling
Details: ABC-DLBCL IkBa-CBG/CBR reporter, luminescence ratio (green luciferase fused to IkBa over red control in TMD8 lymphoma cells), 4 h
Procedure, shortened: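 TMD8 ABC-DLBCL cells carrying doxycycline-inducible green luciferase fused to IkappaBalpha plus unfused red luciferase were exposed to compounds (up to 46 uM) for 4 hrs at 37C. Activity came from the overlap-corrected green/red luminescence ratio.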

[1] = measured here: CBR red luminescence, cell number
[2] = measured here: IkBa-CBG green luminescence

SMILES | AC50 [1] | AC50 [2]
CCc1nnc(NC(=O)C2CCCN2S(=O)(=O)c2ccc(F)cc2)s1 (centres undefined) | 16.4 µM [rising, single point] | –
N#CC1CC(c2ccccc2)Nc2cc(Cl)ccc2N1 (centres undefined) | 5.62 µM [falling, full curve, poor fit] | –
O=C(Nc1ccc(Cl)cc1)N1CCC(CN2CCCCCC2)CC1 | 14.1 µM [rising, partial curve] | –
CNc1ccc(NC(C)=O)cc1[N+](=O)[O-] | 29.1 µM [rising, single point] | –
COc1ccccc1NC(=O)CNC(=O)c1ccccc1 | 2.59 µM [falling, partial curve, poor fit] | –
CCCNC(=O)c1ccc2c(c1)nc(C)n2-c1cccc(C)c1 | 35.5 µM [rising, single point] | –
CC(=O)Nc1ccccc1NC(=O)C/C(C)=N/NC(=O)c1cccnc1 | 35.5 µM [falling, single point] | –
Cc1cnc(C(=O)OCC(=O)Nc2cc(Cl)cc(Cl)c2)cn1 | 25.1 µM [falling, single point] | 20 µM [rising, partial curve, poor fit]
Cc1cc(C(=O)N2CCCC(C(=O)c3ccc4ccccc4c3)C2)nn1C (centres undefined) | 17.8 µM [rising, partial curve, poor fit] | –
Nc1nc(COc2ccccc2)cs1 | 18.4 µM [rising, single point] | –
CCOC(=O)COc1cc(Br)c(/C=N/Nc2ccccc2)cc1OC | 10 µM [falling, partial curve, poor fit] | –
Oc1c(C=C2N=c3ccccc3=N2)sc(=S)n1C1CCCCC1 | 5.17 µM [rising, full curve, poor fit] | –
CSCCC(NC(N)=O)C(=O)Nc1ccc2ccccc2c1 (centres undefined) | 1.58 µM [rising, full curve, poor fit] | –
O=C(Nc1cccnc1)c1ccc([N+](=O)[O-])s1 | 29.1 µM [rising, single point] | –
COc1cc(CC(=O)Nc2ccc(S(=O)(=O)NC3=NCCCCC3)cc2)cc(OC)c1OC | 2.82 µM [rising, full curve, poor fit] | –
Fc1cccc(Cl)c1CNc1ccc(N2CCCC2)cc1 | 20 µM [falling, single point] | –
CCOC(=O)c1c(NC(=O)COc2ccc(CC)cc2)sc2c1CCCC2 | 35.5 µM [falling, single point] | 35.5 µM [rising, single point]
COc1cc(OC)cc(C(=O)Nc2ccc(-c3nc4ccccc4s3)c(C)c2)c1 | 3.55 µM [rising, partial curve, poor fit] | –
O=C1C(C=Nc2ccccc2O)=C(O)c2ccccc21 | 2.82 µM [falling, full curve] | –
O=C(Nc1ccnn1C1CCN(CCCc2ccccc2)CC1)c1ccccc1 | 25.1 µM [falling, partial curve] | –
O=C(N/N=C\C=C\c1ccc2c(c1)OCO2)c1cccnc1 | 29.1 µM [falling, single point] | –
CCOC(=O)C1=C(C)NC(C)=C(C(=O)OCC)C1C(=O)OCC(=O)NCc1ccco1 | 16.4 µM [rising, single point] | 23.1 µM [falling, partial curve, poor fit]

Looked up above:
AC50 [1], CNc1ccc(NC(C)=O)cc1[N+](=O)[O-] reads 29.1 µM [rising, single point]
AC50 [2], Cc1cnc(C(=O)OCC(=O)Nc2cc(Cl)cc(Cl)c2)cn1 reads 20 µM [rising, partial curve, poor fit]
AC50 [1], O=C1C(C=Nc2ccccc2O)=C(O)c2ccccc21 reads 2.82 µM [falling, full curve]

Later entries

SMILES | AC50 [1] | AC50 [2]
O=c1[nH]c(C2CCN(S(=O)(=O)c3ccccc3)CC2)nc2c1nnn2Cc1ccccc1 | 0.316 µM [falling, full curve, poor fit] | –
CSc1ccccc1COC(=O)Nc1ccccc1C | 1.78 µM [falling, partial curve, poor fit] | –
CC(C(=O)NCC1CCCCC1)N(C)Cc1cccc(Cl)c1 (centres undefined) | 22.4 µM [falling, single point] | –
Cc1ccc(C(C(=O)NC(C)(C)C)N(C(=O)CCC(=O)Nc2ccccn2)c2ccccc2F)cc1 (centres undefined) | 25.1 µM [falling, single point] | –
Cn1cccc1/C=N/n1c(-c2ccc(C(C)(C)C)cc2)n[nH]c1=S | 35.5 µM [rising, partial curve, poor fit] | –
COCCN1C(=O)c2ccccc2C(C(=O)NCCCN2CCCC2)C1c1c[nH]c2ccccc12 (centres undefined) | 0.731 µM [rising, full curve, poor fit] | –
COCc1nnc(NS(=O)(=O)c2ccc(C)cc2)s1 | 6.51 µM [falling, single point] | –
C/C(CC(=O)NCc1ccco1)=N\NC(=O)c1ccc([N+](=O)[O-])cc1Cl | 10 µM [falling, partial curve, poor fit] | –
Cc1nnc(NC(=O)NC(C)N2C(=O)C3C4C=CC(C4)C3C2=O)s1 (centres undefined) | 3.98 µM [falling, partial curve, poor fit] | –
O=C(Nc1c(C(=O)O)[nH]c2ccc(F)cc12)c1cccc(C(F)(F)F)c1 | 35.5 µM [rising, single point] | –
CC(C)=CCN1CCN(Cc2cc3ccccc3[nH]2)CC1CCO (centres undefined) | 2.82 µM [rising, full curve, poor fit] | –
CCOc1cc(C(=O)Nc2ccccc2N2CCN(S(C)(=O)=O)CC2)cc(OCC)c1OCC | 3.66 µM [rising, full curve, poor fit] | –
Cc1cc(C)nc(SCC(=O)c2ccc(F)cc2F)n1 | 14.1 µM [rising, single point] | –
CCOc1ccc(NC(=S)NNc2ccnc3cc(Cl)ccc23)cc1 | 35.5 µM [falling, single point] | –
NC1=NC(c2ccc(F)cc2)n2c(nc3ccccc32)N1 (centres undefined) | 7.08 µM [falling, partial curve] | –
O=C(CSc1nc2ccccc2c(=O)n1-c1ccc(F)cc1F)Nc1ccc2c(c1)CCC2 | 2.91 µM [rising, full curve] | 3.66 µM [falling, partial curve, poor fit]
Oc1[nH]c2ccc(Br)cc2c1N=Nc1ccc(C(F)(F)F)cn1 | 0.0058 µM [rising, full curve, poor fit] | –
Cc1ccc(S(=O)(=O)N(C)CCCC(=O)Nc2cc(C)ccc2C)cc1 | 11.6 µM [rising, partial curve] | –
COc1ccc(C(=O)c2coc3c2C(=O)C(=O)c2ccccc2-3)cc1 | 35.5 µM [rising, single point] | –
Cc1nc(N2CCN(c3ccccc3)CC2)nc2c1C(=O)CC(C)C2 (centres undefined) | 17.8 µM [rising, single point] | –
COc1ccc(S(=O)(=O)N2CCOC2CNC(=O)C(=O)NCc2ccccn2)cc1C (centres undefined) | 6.31 µM [rising, partial curve, poor fit] | –
Cc1cc(N/N=C/c2ccccc2O)nc(-c2ccccc2O)n1 | 1.3 µM [falling, full curve] | –

SMILES | AC50 [1] | AC50 [2]
CCC1=Nc2cc(C(=O)NCC3CCCO3)ccc2Sc2ccc(Cl)cc21 (centres undefined) | 15.8 µM [rising, single point] | 22.4 µM [falling, single point]
CCCCCCc1cc2cc(C(=O)Nc3ccc(OC)cc3)c(=O)oc2cc1O | 8.2 µM [falling, partial curve] | –
Cc1cccnc1NC(=S)NCc1ccco1 | 25.1 µM [rising, single point] | –
O=C(Nc1cccc2ccccc12)c1cc2c(cc1Br)OCO2 | – | 20 µM [falling, partial curve]
Cc1ccc(C(=O)N2CCN(S(=O)(=O)c3ccc(Br)cc3)CC2)o1 | 3.16 µM [falling, single point] | –
COc1ccc(CNC(=O)CSc2nc(-c3ccccc3)cc(-c3cccs3)c2C#N)cc1 | 2.06 µM [rising, full curve, poor fit] | –
O=C(Nc1ccccc1O)c1ccc(Cl)cc1 | 10 µM [falling, partial curve, poor fit] | –
CCCCN(CCCNC(=O)C1CCN(C(=O)c2cc3sccc3n2C)CC1)Cc1ccccc1 | 31.6 µM [falling, single point] | –
c1ccc(Cn2ncc3c(Nc4ccccc4)ncnc32)cc1 | 4.47 µM [falling, partial curve, poor fit] | –
O=C(O)C1CCN(c2nc(-c3ccccc3)nc3c2oc2ccccc23)CC1 | 8.91 µM [falling, partial curve] | –
Cn1nc(-c2ccccc2)c(COC(=O)c2cccc(Cl)c2)c1S(=O)(=O)c1ccccc1 | 6.51 µM [falling, single point] | –
Cc1csc2nc(O)c(C(=O)NC3CCCCCC3)c(=O)n12 | 5.8 µM [rising, single point] | –
CCS(=O)(=O)NCCCCc1ccccc1 | 3.26 µM [falling, single point] | –
O=S(=O)(c1cccc(Cl)c1)N1CCN(S(=O)(=O)c2ccc3c(c2)OCCO3)CC1 | 20.6 µM [rising, single point] | –
Cc1ccc(S(=O)(=O)c2ncccc2N)cc1 | 35.5 µM [rising, single point] | –
Cn1c(-c2ccccc2)cc2c3no[n+]([O-])c3ccc21 | 3.16 µM [rising, full curve, poor fit] | –
CCOc1cccc2sc(N3CCN(C(=O)C(C)(C)C)CC3)nc12 | 2.24 µM [rising, full curve] | –
CCOC(=O)C1CCN(S(=O)(=O)c2ccc(NC(=O)OC)cc2)CC1 | 5.8 µM [rising, single point] | –
CN(C)C(CNC(C(=O)Nc1ccc([N+](=O)[O-])cc1Br)c1ccccc1)c1ccccc1 (centres undefined) | 15.8 µM [falling, single point] | –
Cc1cccc(C)c1-n1nnnc1C(C)(C)N1CCN(N=O)CC1 | 7.94 µM [rising, partial curve, poor fit] | –
